Test results published in the supplement of paper PMC10849652.
The list shows a part of the results.

The chains behind the UniProt entries cited, without tags or fusion partners. Where a name states a change or a piece, a line headed by the entry shows the natural chain unless it says otherwise.
UniProt P12980: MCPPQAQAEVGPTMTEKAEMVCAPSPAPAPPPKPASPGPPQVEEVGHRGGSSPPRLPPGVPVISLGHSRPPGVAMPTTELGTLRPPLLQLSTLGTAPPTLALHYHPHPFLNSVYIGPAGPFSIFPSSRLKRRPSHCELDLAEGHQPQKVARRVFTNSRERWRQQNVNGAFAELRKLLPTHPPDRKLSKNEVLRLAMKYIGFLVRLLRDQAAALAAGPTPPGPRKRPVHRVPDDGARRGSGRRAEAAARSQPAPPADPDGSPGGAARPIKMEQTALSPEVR
UniProt Q16644, whole entry, looked up: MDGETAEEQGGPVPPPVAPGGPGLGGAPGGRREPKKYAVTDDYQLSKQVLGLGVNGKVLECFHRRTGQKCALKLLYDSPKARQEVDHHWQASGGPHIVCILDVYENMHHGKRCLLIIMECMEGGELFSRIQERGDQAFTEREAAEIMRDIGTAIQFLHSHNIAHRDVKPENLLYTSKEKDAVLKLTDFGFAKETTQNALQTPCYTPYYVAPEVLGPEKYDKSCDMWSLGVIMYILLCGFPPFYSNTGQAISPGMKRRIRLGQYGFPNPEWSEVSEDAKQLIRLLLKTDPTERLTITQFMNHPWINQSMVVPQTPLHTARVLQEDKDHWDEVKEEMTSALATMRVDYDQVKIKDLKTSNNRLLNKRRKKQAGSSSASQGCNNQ
UniProt P29966: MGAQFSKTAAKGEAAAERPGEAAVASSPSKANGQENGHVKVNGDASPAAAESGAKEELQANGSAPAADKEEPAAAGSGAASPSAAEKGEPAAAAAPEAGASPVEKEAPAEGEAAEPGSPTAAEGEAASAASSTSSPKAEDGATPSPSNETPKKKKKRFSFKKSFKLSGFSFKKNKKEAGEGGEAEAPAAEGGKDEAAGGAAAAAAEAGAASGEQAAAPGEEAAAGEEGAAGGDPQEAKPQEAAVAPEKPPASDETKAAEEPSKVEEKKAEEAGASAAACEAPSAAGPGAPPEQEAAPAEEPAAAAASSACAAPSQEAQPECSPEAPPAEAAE
UniProt Q15691: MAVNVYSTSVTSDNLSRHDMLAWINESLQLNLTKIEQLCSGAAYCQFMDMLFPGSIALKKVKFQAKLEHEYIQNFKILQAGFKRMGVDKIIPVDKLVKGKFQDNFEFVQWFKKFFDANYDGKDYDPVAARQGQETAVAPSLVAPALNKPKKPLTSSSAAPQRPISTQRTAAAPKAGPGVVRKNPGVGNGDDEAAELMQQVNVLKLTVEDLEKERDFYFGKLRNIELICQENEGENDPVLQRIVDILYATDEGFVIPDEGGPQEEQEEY
UniProt Q9NTJ4: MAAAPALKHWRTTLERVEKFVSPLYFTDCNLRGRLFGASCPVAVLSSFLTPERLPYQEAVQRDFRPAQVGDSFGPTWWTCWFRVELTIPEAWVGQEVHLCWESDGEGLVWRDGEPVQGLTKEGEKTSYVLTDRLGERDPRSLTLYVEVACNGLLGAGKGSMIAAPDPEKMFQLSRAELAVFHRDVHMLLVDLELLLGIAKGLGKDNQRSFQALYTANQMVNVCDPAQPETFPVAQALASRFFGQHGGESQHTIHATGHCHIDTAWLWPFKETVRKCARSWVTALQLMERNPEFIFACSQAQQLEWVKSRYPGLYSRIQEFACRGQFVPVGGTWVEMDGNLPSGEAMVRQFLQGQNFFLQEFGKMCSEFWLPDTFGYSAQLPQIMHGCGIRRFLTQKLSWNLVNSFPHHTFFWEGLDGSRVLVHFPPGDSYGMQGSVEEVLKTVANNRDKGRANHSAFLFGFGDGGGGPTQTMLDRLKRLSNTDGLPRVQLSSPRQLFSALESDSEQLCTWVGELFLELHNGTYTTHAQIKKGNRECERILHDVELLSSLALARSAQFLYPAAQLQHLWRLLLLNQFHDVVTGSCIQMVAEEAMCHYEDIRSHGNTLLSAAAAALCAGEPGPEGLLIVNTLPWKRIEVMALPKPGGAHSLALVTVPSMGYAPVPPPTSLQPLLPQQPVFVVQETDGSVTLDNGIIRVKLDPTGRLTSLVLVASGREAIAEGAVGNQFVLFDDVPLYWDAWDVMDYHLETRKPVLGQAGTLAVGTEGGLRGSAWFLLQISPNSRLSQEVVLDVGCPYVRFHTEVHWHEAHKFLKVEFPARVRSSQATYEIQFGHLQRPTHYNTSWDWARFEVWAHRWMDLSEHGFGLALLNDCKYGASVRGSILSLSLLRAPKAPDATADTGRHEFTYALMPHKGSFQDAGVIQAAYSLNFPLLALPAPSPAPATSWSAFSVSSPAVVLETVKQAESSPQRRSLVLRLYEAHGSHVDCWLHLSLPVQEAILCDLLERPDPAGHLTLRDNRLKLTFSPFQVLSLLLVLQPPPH
UniProt Q5U5X0: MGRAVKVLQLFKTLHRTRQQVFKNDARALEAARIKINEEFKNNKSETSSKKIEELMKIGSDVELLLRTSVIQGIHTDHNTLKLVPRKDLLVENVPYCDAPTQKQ
UniProt Q9NU23: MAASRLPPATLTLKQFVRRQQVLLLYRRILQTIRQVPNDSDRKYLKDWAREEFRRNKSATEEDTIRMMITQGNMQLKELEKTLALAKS
UniProt O43318: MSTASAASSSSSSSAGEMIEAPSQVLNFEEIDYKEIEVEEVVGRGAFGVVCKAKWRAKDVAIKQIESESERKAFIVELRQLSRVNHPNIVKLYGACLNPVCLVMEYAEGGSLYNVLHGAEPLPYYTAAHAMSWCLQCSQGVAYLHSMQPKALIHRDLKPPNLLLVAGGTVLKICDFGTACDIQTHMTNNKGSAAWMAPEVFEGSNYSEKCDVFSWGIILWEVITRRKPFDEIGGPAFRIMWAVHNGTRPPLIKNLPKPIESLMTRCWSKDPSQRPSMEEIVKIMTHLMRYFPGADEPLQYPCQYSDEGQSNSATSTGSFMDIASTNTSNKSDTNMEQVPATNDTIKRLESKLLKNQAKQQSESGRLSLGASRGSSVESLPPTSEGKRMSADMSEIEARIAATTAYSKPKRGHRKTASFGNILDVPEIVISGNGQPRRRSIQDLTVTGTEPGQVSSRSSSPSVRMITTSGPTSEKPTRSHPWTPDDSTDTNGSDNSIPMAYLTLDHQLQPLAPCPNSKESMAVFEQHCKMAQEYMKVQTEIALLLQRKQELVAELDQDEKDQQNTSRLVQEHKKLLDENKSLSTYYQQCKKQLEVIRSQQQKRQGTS
UniProt P45983: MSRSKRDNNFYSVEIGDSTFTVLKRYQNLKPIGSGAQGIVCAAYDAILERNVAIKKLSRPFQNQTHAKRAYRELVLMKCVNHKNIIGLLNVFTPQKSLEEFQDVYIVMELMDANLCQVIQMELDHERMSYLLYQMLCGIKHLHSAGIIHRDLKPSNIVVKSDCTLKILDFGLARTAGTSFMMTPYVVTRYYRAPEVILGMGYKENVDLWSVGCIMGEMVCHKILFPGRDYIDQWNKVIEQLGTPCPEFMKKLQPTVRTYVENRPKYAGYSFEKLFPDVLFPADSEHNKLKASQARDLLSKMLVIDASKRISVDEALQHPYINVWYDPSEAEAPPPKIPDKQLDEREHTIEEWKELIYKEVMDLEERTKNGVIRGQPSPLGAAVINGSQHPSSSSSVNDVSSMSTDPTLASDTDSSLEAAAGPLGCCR
UniProt P27816: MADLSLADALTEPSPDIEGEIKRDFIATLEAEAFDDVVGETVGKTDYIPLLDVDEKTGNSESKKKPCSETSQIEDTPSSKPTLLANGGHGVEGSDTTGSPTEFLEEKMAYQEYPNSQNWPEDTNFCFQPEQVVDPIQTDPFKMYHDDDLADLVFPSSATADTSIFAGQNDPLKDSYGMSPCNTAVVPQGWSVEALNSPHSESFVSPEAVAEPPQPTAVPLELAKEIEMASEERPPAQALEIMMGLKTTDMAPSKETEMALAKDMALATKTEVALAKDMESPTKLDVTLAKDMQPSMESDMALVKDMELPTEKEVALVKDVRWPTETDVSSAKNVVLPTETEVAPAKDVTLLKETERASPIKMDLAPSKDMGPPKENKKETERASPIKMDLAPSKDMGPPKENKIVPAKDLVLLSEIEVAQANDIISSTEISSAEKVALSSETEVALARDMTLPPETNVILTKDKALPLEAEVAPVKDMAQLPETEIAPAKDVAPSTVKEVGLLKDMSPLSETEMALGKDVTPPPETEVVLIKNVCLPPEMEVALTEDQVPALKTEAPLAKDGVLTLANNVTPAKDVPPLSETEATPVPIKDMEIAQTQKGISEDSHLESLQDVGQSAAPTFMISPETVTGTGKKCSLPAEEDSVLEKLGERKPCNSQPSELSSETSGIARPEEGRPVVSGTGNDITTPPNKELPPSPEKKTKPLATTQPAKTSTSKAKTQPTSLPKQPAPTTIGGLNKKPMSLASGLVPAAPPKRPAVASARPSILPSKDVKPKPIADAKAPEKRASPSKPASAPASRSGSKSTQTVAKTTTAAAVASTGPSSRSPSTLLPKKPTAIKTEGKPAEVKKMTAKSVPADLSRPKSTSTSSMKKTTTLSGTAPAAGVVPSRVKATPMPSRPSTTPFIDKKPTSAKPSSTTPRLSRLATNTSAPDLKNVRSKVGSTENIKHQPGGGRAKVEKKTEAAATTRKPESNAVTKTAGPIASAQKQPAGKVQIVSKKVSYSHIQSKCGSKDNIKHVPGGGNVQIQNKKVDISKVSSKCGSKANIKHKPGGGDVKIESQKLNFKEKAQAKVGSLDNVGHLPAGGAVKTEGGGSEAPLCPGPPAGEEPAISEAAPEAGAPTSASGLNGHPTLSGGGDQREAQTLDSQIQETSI
UniProt Q8WV07: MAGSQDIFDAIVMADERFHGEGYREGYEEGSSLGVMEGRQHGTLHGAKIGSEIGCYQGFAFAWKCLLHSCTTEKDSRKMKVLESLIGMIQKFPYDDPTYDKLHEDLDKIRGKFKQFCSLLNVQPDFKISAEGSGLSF
UniProt O15116: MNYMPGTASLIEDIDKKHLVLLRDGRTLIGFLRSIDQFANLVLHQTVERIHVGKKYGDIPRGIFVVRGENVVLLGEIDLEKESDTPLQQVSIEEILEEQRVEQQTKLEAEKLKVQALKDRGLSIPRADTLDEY
UniProt Q9Y333: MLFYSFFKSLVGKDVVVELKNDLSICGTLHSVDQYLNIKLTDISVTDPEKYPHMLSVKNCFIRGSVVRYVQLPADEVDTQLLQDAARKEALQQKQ
UniProt Q96A72, whole entry, looked up: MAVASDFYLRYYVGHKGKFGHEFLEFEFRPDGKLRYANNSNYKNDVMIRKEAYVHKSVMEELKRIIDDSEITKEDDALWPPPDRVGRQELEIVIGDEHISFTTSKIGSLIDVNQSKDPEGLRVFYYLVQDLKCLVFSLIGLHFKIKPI
UniProt O75608: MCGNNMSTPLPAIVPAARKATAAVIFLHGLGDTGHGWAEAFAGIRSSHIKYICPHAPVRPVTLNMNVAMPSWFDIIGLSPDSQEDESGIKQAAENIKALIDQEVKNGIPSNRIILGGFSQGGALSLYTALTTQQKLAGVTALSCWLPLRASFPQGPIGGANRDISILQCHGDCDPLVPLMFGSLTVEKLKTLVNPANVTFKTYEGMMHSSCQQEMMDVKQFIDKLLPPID
UniProt Q16706: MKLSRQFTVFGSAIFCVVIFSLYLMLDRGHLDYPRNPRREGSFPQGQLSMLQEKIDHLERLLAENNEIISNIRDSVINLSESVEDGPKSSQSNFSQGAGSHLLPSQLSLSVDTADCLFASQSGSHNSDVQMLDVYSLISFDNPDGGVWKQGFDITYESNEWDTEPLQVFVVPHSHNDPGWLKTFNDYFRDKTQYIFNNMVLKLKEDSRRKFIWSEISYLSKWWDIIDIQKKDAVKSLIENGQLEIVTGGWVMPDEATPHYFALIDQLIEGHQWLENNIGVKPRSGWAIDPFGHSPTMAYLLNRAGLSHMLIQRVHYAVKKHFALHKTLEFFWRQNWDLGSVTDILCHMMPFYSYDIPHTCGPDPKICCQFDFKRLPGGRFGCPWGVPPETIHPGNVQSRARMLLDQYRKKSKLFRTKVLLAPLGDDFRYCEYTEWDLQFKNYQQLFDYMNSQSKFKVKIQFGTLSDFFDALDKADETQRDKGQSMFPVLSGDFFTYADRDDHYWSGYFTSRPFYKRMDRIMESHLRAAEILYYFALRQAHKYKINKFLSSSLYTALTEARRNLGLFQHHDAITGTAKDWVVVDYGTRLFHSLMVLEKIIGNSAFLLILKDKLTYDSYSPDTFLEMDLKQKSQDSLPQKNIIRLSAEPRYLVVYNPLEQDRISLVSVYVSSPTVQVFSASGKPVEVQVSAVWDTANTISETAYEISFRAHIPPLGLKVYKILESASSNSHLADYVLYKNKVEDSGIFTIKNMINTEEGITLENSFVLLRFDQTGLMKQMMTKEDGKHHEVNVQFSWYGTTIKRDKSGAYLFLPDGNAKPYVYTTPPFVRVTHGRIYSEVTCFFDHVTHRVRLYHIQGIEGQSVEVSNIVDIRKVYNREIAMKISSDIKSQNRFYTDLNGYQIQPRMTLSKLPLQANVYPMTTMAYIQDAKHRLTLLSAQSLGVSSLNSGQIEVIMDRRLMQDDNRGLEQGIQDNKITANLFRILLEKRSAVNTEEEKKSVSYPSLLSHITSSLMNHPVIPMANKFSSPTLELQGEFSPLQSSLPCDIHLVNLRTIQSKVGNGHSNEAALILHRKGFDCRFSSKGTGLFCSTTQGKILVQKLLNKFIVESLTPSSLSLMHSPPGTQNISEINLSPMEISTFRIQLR

Experiments:
Experiment in all cases: log2 fold change, soluble protein after heating vs DMSO (PISA); higher = thermal stabilisation; K562 cells, 10 uM, 30 min; active = over 0.2 and 3.5 SD of the protein, either way, in both replicates (recomputed)
[1] = compound: COC1=CC=C(C=C1)CN2C=CC3=C2C=C(C=C3)C(=O)NO
In short: (§1)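 K562 cells at 2×10^6 cells/mL were treated with 10 μM compound for 30 min. Aliquots were heated for 3 min across 48°C-58°C, pooled, and extracted in PBS with 0.5% NP-40 at 4°C; soluble protein was the supernatant after 21,000xg for 90 min. Soluble protein was quantified by TMTpro 16plex LC-MS/MS with channel sums equalised, and reported as log2 fold change in thermal stability against DMSO controls, with values from duplicates.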

filanesib = compound: CON(C)C(=O)N1N=C(c2cc(F)ccc2F)S[C@@]1(CCCN)c1ccccc1 [filanesib]
In short: as §1

zotarolimus = compound: CO[C@H]1C[C@@H]2CC[C@@H](C)[C@@](O)(O2)C(=O)C(=O)N2CCCC[C@H]2C(=O)O[C@H]([C@H](C)C[C@@H]2CC[C@H](n3cnnn3)[C@H](OC)C2)CC(=O)[C@H](C)/C=C(\C)[C@@H](O)[C@@H](OC)C(=O)[C@H](C)C[C@H](C)/C=C/C=C/C=C/1C [zotarolimus]
In short: as §1

idasanutlin = compound: COc1cc(C(=O)O)ccc1NC(=O)[C@@H]1N[C@@H](CC(C)(C)C)[C@](C#N)(c2ccc(Cl)cc2F)[C@H]1c1cccc(Cl)c1F [idasanutlin]
In short: as §1

alisertib = compound: COc1cc(Nc2ncc3c(n2)-c2ccc(Cl)cc2C(c2c(F)cccc2OC)=NC3)ccc1C(=O)O [alisertib]
In short: as §1

[2] = compound: COc1cc2nc(-c3cc(F)ccc3O)nc(N[C@@H]3CNC[C@H]3C(C)(C)O)c2cc1OC
In short: as §1

gefitinib = compound: COc1cc2ncnc(Nc3ccc(F)c(Cl)c3)c2cc1OCCCN1CCOCC1 [gefitinib]
In short: as §1

[3] = compound: COc1cccc2cc(-c3nc([C@H]4CC[C@H](C(=O)O)CC4)n4ncnc(N)c34)[nH]c12
In short: as §1

lapatinib = compound: CS(=O)(=O)CCNCc1ccc(-c2ccc3ncnc(Nc4ccc(OCc5cccc(F)c5)c(Cl)c4)c3c2)o1 [lapatinib]
In short: as §1

pictilisib = compound: CS(=O)(=O)N1CCN(Cc2cc3nc(-c4cccc5[nH]ncc45)nc(N4CCOCC4)c3s2)CC1 [pictilisib]
In short: as §1

Measured: log2 fold change

LYL1 (UniProt P12980)
inactive: [1] -0.037 | filanesib 0.153 | zotarolimus -0.073 | idasanutlin 0.04 | alisertib -0.091 | [2] 0.16 | gefitinib 0.027 | [3] -0.134 | lapatinib -0.012

LYSMD3 (UniProt Q7Z3D4)
inactive: [1] -0.002 | filanesib -0.02 | zotarolimus 0.127 | idasanutlin -0.092 | alisertib 0.008 | [2] -0.057 | gefitinib -0.016 | [3] 0.066 | lapatinib 0.15 | pictilisib 0.042

MAPKAPK3 (UniProt Q16644)
inactive: [1] -0.146 | filanesib 0 | zotarolimus -0.034 | idasanutlin -0.088 | alisertib 0.018 | [2] 0.037 | gefitinib 0.27 | [3] 0.01 | lapatinib -0.065 | pictilisib 0.039

MARCKS (UniProt P29966)
inactive: [1] 0.108 | filanesib 0.004 | zotarolimus 0.001 | idasanutlin 0.062 | alisertib 0.006 | [2] -0.016 | gefitinib -0.003 | [3] 0.069 | lapatinib 0.019 | pictilisib -0.225

LTV1 (UniProt Q96GA3)
inactive: [1] -0.019 | filanesib 0.17 | zotarolimus 0.067 | idasanutlin 0.133 | alisertib -0.06 | [2] 0.022 | gefitinib -0.097 | [3] -0.095 | lapatinib 0.05 | pictilisib 0

MAK16 (UniProt Q9BXY0)
inactive: [1] -0.017 | filanesib 0.115 | zotarolimus 0.033 | idasanutlin 0.061 | alisertib -0.046 | [2] -0.127 | gefitinib -0.065 | [3] 0.02 | lapatinib 0.156 | pictilisib 0.053

MAPRE1 (UniProt Q15691)
inactive: [1] 0.007 | filanesib -0.039 | zotarolimus 0.031 | idasanutlin -0.072 | alisertib -0.021 | [2] 0.015 | gefitinib 0.003 | [3] -0.033 | lapatinib 0 | pictilisib 0.013

MAN2C1 isoform 4 (UniProt Q9NTJ4)
inactive: [1] -0.083 | filanesib -0.019 | zotarolimus -0.018 | idasanutlin 0.092 | alisertib -0.028 | [2] 0.036 | gefitinib 0.001 | [3] -0.005 | lapatinib 0.004 | pictilisib 0.003

LYRM7 (UniProt Q5U5X0)
inactive: [1] -0.027 | filanesib -0.075 | zotarolimus 0.029 | idasanutlin -0.077 | alisertib -0.094 | [2] -0.066 | gefitinib -0.051 | [3] 0.017 | lapatinib -0.061 | pictilisib 0.053

MAPK6 (UniProt Q16659)
inactive: [1] 0.176 | filanesib -0.013 | zotarolimus -0.009 | idasanutlin 0.188 | alisertib -0.023 | [2] 0.044 | gefitinib 0.019 | [3] 0.196 | lapatinib 0.028 | pictilisib -0.02

LYRM2 (UniProt Q9NU23)
inactive: [1] 0.032 | filanesib -0.061 | zotarolimus -0.014 | idasanutlin -0.019 | alisertib -0.101 | [2] 0.083 | gefitinib 0.021 | [3] 0.071 | lapatinib -0.247 | pictilisib -0.003

MAP3K7 (UniProt O43318)
inactive: [1] 0.105 | filanesib 0.026 | zotarolimus -0.074 | idasanutlin -0.03 | alisertib 0.084 | [2] 0.065 | gefitinib 0.016 | [3] -0.054 | lapatinib -0.058 | pictilisib 0.088

LYSMD2 (UniProt Q8IV50)
inactive: [1] -0.008 | filanesib -0.048 | zotarolimus -0.022 | idasanutlin -0.022 | alisertib -0.018 | [2] 0.051 | gefitinib 0.026 | [3] 0.009 | lapatinib -0.033 | pictilisib -0.034

LSM12 isoform 2 (UniProt Q3MHD2)
inactive: [1] -0.03 | filanesib -0.055 | zotarolimus 0.028 | idasanutlin 0.064 | alisertib -0.053 | [2] -0.035 | gefitinib -0.017 | [3] 0.004 | lapatinib 0.063 | pictilisib -0.14

MAGED2 (UniProt Q9UNF1)
inactive: [1] -0.061 | filanesib -0.054 | zotarolimus 0 | idasanutlin -0.219 | alisertib -0.189 | [2] 0.231 | gefitinib 0 | [3] 0.065 | lapatinib -0.007 | pictilisib 0.14

MAPK8 isoform 3 (UniProt P45983)
inactive: [1] 0.025 | filanesib 0.064 | zotarolimus 0.018 | idasanutlin -0.08 | alisertib 0.007 | [2] 0.234 | gefitinib -0.026 | [3] 0.035 | lapatinib -0.045 | pictilisib 0.287

MACF1 (UniProt H3BQK9)
inactive: [1] -0.095 | filanesib 0.149 | zotarolimus 0.115 | idasanutlin 0.026 | alisertib -0.237 | [2] -0.028 | gefitinib 0.099 | [3] -0.248 | lapatinib 0.089 | pictilisib -0.005

MAD2L1 (UniProt Q13257)
inactive: [1] -0.024 | filanesib -0.042 | zotarolimus 0.034 | idasanutlin -0.12 | alisertib -0.003 | [2] 0.048 | gefitinib 0.008 | [3] 0.01 | lapatinib -0.064 | pictilisib 0.024

MAP4 (UniProt P27816)
inactive: [1] -0.002 | filanesib 0.022 | zotarolimus -0.029 | idasanutlin 0.028 | alisertib -0.034 | [2] -0.027 | gefitinib -0.019 | [3] -0.003 | lapatinib -0.002 | pictilisib -0.078

MARCHF6 (UniProt O60337)
inactive: [1] -0.066 | filanesib -0.264 | zotarolimus 0.034 | idasanutlin 0.087 | alisertib -0.062 | [2] -0.133 | gefitinib -0.129 | [3] 0.084 | lapatinib 0.142 | pictilisib 0.025

LTO1 (UniProt Q8WV07)
inactive: [1] -0.06 | filanesib -0.06 | zotarolimus 0.062 | idasanutlin -0.093 | alisertib 0.118 | [2] 0.036 | gefitinib 0.017 | [3] -0.001 | lapatinib -0.016 | pictilisib 0.038

LZTFL1 (UniProt Q9NQ48)
inactive: [1] -0.019 | filanesib -0.039 | zotarolimus 0.017 | idasanutlin -0.06 | alisertib -0.01 | [2] 0.035 | gefitinib -0.004 | [3] 0.017 | lapatinib 0.034 | pictilisib -0.021

LSM1 (UniProt O15116)
inactive: [1] -0.144 | filanesib 0.133 | zotarolimus 0.036 | idasanutlin 0.015 | alisertib -0.014 | [2] 0.03 | gefitinib 0.02 | [3] 0.067 | lapatinib -0.035 | pictilisib 0.1

LSM2 (UniProt Q9Y333)
inactive: [1] 0.007 | filanesib -0.026 | zotarolimus -0.006 | idasanutlin -0.008 | alisertib -0.051 | [2] 0.024 | gefitinib 0.009 | [3] 0.071 | lapatinib -0.025 | pictilisib 0.026

MAGOHB (UniProt Q96A72)
inactive: [1] -0.012 | filanesib 0.018 | zotarolimus 0.054 | idasanutlin -0.027 | alisertib 0.011 | [2] 0.144 | gefitinib 0 | [3] 0.024 | lapatinib -0.018 | pictilisib 0.005

Eight consecutive entries from above, quoted:
MAD2L1 (UniProt Q13257)
inactive: [1] -0.024 | filanesib -0.042 | zotarolimus 0.034 | idasanutlin -0.12 | alisertib -0.003 | [2] 0.048 | gefitinib 0.008 | [3] 0.01 | lapatinib -0.064 | pictilisib 0.024

MAP4 (UniProt P27816)
inactive: [1] -0.002 | filanesib 0.022 | zotarolimus -0.029 | idasanutlin 0.028 | alisertib -0.034 | [2] -0.027 | gefitinib -0.019 | [3] -0.003 | lapatinib -0.002 | pictilisib -0.078

MARCHF6 (UniProt O60337)
inactive: [1] -0.066 | filanesib -0.264 | zotarolimus 0.034 | idasanutlin 0.087 | alisertib -0.062 | [2] -0.133 | gefitinib -0.129 | [3] 0.084 | lapatinib 0.142 | pictilisib 0.025

LTO1 (UniProt Q8WV07)
inactive: [1] -0.06 | filanesib -0.06 | zotarolimus 0.062 | idasanutlin -0.093 | alisertib 0.118 | [2] 0.036 | gefitinib 0.017 | [3] -0.001 | lapatinib -0.016 | pictilisib 0.038

LZTFL1 (UniProt Q9NQ48)
inactive: [1] -0.019 | filanesib -0.039 | zotarolimus 0.017 | idasanutlin -0.06 | alisertib -0.01 | [2] 0.035 | gefitinib -0.004 | [3] 0.017 | lapatinib 0.034 | pictilisib -0.021

LSM1 (UniProt O15116)
inactive: [1] -0.144 | filanesib 0.133 | zotarolimus 0.036 | idasanutlin 0.015 | alisertib -0.014 | [2] 0.03 | gefitinib 0.02 | [3] 0.067 | lapatinib -0.035 | pictilisib 0.1

LSM2 (UniProt Q9Y333)
inactive: [1] 0.007 | filanesib -0.026 | zotarolimus -0.006 | idasanutlin -0.008 | alisertib -0.051 | [2] 0.024 | gefitinib 0.009 | [3] 0.071 | lapatinib -0.025 | pictilisib 0.026

MAGOHB (UniProt Q96A72)
inactive: [1] -0.012 | filanesib 0.018 | zotarolimus 0.054 | idasanutlin -0.027 | alisertib 0.011 | [2] 0.144 | gefitinib 0 | [3] 0.024 | lapatinib -0.018 | pictilisib 0.005

Later entries:

LYPLA1 (UniProt O75608)
inactive: [1] -0.029 | filanesib -0.034 | zotarolimus 0.024 | idasanutlin -0.031 | alisertib -0.031 | [2] -0.031 | gefitinib -0.006 | [3] 0.02 | lapatinib -0.059 | pictilisib 0.017

MAP1S (UniProt Q66K74)
inactive: [1] -0.013 | filanesib 0.037 | zotarolimus 0.038 | idasanutlin -0.034 | alisertib -0.089 | [2] 0.027 | gefitinib -0.009 | [3] -0.066 | lapatinib 0.02 | pictilisib 0.018

LYSMD1 (UniProt Q96S90)
inactive: [1] 0.044 | filanesib -0.058 | zotarolimus 0.053 | idasanutlin -0.007 | alisertib -0.004 | [2] -0.026 | gefitinib 0 | [3] -0.012 | lapatinib 0.071 | pictilisib 0.032

MAP2K2 (UniProt P36507)
inactive: [1] -0.014 | filanesib -0.061 | zotarolimus 0.018 | idasanutlin 0 | alisertib -0.103 | [2] -0.011 | gefitinib -0.011 | [3] 0.007 | lapatinib -0.069 | pictilisib -0.023

MAN2A1 (UniProt Q16706)
inactive: [1] 0.027 | filanesib -0.016 | zotarolimus -0.01 | idasanutlin 0.058 | alisertib -0.023 | [2] 0.044 | gefitinib 0.041 | [3] 0.019 | lapatinib 0.002 | pictilisib -0.074
